The whole screen tested about 52,000 sequences, of which about 210 (0.4%) were called active.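 The calls were made as follows: active = gene whose silencing raises cell survival under the drug, median off-target-corrected z-score across its silencing RNAs 2 or more; inactive = the rest.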 The list shows a part of the results.

The nature of the test: Resistance to Poly (ADP-Ribose) Polymerase inhibitor: Gene Identification via Genome-wide siRNA Screen. The following applies: mouse BRCA2 R2336H ES cells, olaparib, CellTiter-Glo viability; active compounds read high. In a few lines: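 Genome-wide siRNA screen (3 siRNAs/gene, 20 nM) in mouse ES cells carrying hypomorphic BRCA2 R2336H; olaparib 500 nM added 48 h post-transfection, CellTiter-Glo viability 72 h later. Normalized to plate-median negative control; MAD z-scores, gene median, seed-adjusted.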
For the sequence GGUAAAGAGAGAUCCAUCCTT against Pphln1, the z-score is inactive: -0.913. On to “CGAAUGGAGCCUUAUUACUTT against C130068N17Rik”, for which the z-score was inactive: 0.628. For GGUCUCUUUCCUAUCCAUUTT against Gprc2a, the z-score was inactive: 2.67.

With GCAGGUACAAAUCUACUACTT against Myo7b, the z-score is inactive: 0.56. In the case of GGUUCUCUUUGAAGAAACUTT against Amotl2, the z-score was inactive: -1.56. GGCAUUAAACAAGAAGCUUTT against Dspg3: the z-score was inactive: -0.861. As for GGAGUGCUGUAUUUUUGUATT against Gpr68, the z-score is inactive: -0.927. As for CCCUGUAUAUAUUUGCUGATT against Clca2, the z-score is inactive: 0.501. As to GGACUUGCCACCCAGGAAATT against Apba3, the z-score is inactive: 0.00652. Under GCACACUGAAGUGUUUGUATT against Gorasp1 stands inactive: 0.247; under CGAGCCAUACCUUCAACUGTT against Ncoa2, inactive: 0.454; under GGUGGAAGACUUCAGUGAATT against Clgn, inactive: 0.244. To GGAUGUAUGAUGCAGUUAUTT against Olfr1211 belongs inactive: 0.388; to “GGUCAAGGCUGUCAAGUUGTT against 0610008N23Rik”, inactive: 1.16. Under “CCCAGGUAGAGACAUUGCUTT against 6330444E15Rik” stands inactive: -0.298; under “GGAAUGUGACUGGGCUAGATT against 2310047H23Rik”, inactive: -0.271. On to GGAGUCUUGUAAUGAGCUUTT against Zfp54, for which the z-score is inactive: -0.0148. For the sequence GCAGCAUAUAGAAAACCUATT against Nr1h5, the z-score was inactive: 0.917. Regarding GCUGAGAGUGAACCGAUGUTT against Dyrk4, the z-score was inactive: 0.0203. For the sequence “GGAUCUCACAGUGAAGAAGTT against A930040G15Rik”, the z-score is inactive: -1.3. Regarding GGGAAGGAUUAGCAUGUCGTT against Hrsp12, the z-score is inactive: 0.0765.

For the sequence “GGCUUCUCAGCUAGAAAACTT against 2610528J18Rik”, the z-score is inactive: -0.00214.

Take GGGCUCUGCUAGUUCAAUATT against Lpp: the z-score is inactive: -2.03. In the case of GGUUCUUUGUUACUCUAAGTT against Gabrb3, the z-score was inactive: -0.886. Under GCAGAGAGAGCGUGAAUCCTT against AB124611 stands inactive: 0.255. Under GGAACAAUGCUCAAUUUUUTT against Recc1 stands inactive: 0.0368; under GGAUCUUUUCAGGUUCUAATT against Olfr659, inactive: -0.553. For the sequence GGAAAGUGUUCCGAAUAUUTT against Nipa, the z-score is inactive: -0.194. Turning to “GGGUGGAAGUGGAAUUUAUTT against 1700052H20Rik”, the z-score was inactive: -0.15. In the case of GGAAGGUGGACAGAUUGCATT against Pfkfb3, the z-score is inactive: -0.492. Consider GGUAAAGUUCAAGUUAAGATT against Atp9b, for which the z-score is inactive: 0.451. To “GCACGAAUCAUUGUUCAAATT against 6330407G04Rik” belongs inactive: -0.635; to GGAUGAUGUCAGCACUUUUTT against Tbn, inactive: -0.68. Regarding GGAAAACCUAGAGAAGCUGTT against Mast1, the z-score is inactive: -1.11. For the sequence CCAUCAUGGCCUUAUCCGUTT against Rfx1, the z-score is inactive: 0.291. To GGCUUGAGUCCUGAGACCATT against Ifna11 belongs inactive: 1.04; to CCACGAGGAGCUCAUUUUCTT against Dhfr, inactive: 2.45; to GGUUUGUCGAAUUGUUGUATT against Ostn, inactive: 0.575.

As to “GGCUAUGGAGCACUCACAATT against 2810458H16Rik”, the z-score was inactive: -0.944. Turning to GGACUAGCAAGCUCUUCAGTT against Fancd2, the z-score was inactive: 1.08. Under GCUGAAGAAGUGCUCUUCUTT against Rarres2 stands inactive: 1.63; under “CCACCUUCUAUCAGCAAAUTT against 4930433I11Rik”, inactive: 3.43. Regarding GGAAAGUUACAACAGAUAATT against Pkn2, the z-score was inactive: -0.566. Under GCCAGAAUGGACUUGAGAATT against V1re6 stands inactive: -0.0714. To GCUGUACACAGUGAGGAAGTT against Gcat belongs inactive: 0.235; to CCGCACCAUUCAGCUUUUUTT against BC025076, inactive: -1.47; to GCGAAAAAGAUCGUCCUUGTT against BC053071, inactive: 1.11. Consider GCUAUAAUUUGACAGUUAGTT against Lrba, for which the z-score is inactive: -0.291. In the case of GGAAAUAAGAAUGUAGUGATT against Ahcyl1, the z-score is inactive: -0.214. For “GCAGUACAUAGGACAAUACTT against D7Ertd462e”, the z-score is inactive: 0.284.

“CCCAUAAUGAUAUAAACCUTT against A430108B07Rik”: the z-score is inactive: -0.15. Under CCUCACCUAUGGCUAUGUCTT against Itga5 stands inactive: -0.583. To GGUGGAAUCUCCUGAGAGUTT against Smarcd2 belongs inactive: 0.697; to “CCAUGUGACAAAGCCUACCTT against 6330503C03Rik”, inactive: -0.14; to “GGUUGGUUCUUACUUGAAATT against 2310047O13Rik”, inactive: -2.

For GGAUCAUUGUUCUCUCAAGTT against Tnfsf5ip1, the z-score is inactive: -0.523. Under GGAAGUAGAUUAGAUGGUATT against Akt3 stands inactive: 1.13; under “GGACAGACGAAUUGAAAACTT against 1700095N21Rik”, inactive: 0.237; under “AUGCGUCCUUCACCAACGATT against 2310037P21Rik”, inactive: 1.89. GGGCUUUUAUGUUUAACUUTT against Itpr3: the z-score was inactive: 1.67.

Regarding CCAUGUGACAGCAUUGUUGTT against Axin1, the z-score was inactive: -1.38.

Turning to UUCCAAUCCACAUAUGUUUTT against Tusc1, the z-score is inactive: -0.231.

Take GGAAAAACAUGUACAAAGATT against Xdh: the z-score was inactive: 2.39. To GCUCUACUGCUUCUUAGUCTT against Olfr965 belongs inactive: -0.192; to “GGAGAUGGGCAAAGAGAUCTT against D19Ertd144e”, inactive: -0.0448. In the case of GGUUCAACAAAACAAAGAGTT against Steap, the z-score is inactive: -0.0309. Take “GCCCUUAGAAGUCAUUGAGTT against 2700050C12Rik”: the z-score was inactive: -1.13. For GGAAAUGGUAGCCAGAGUGTT against LOC212871, the z-score is inactive: 0.745.

On to GCCUCCUGAAUGACCACAUTT against Klk27, for which the z-score was inactive: -0.00137. To GGUCUCCUAUCAGAAAGCCTT against Dyt1 belongs inactive: 1.47.

“GCCUUUAGACUAAACAGCCTT against 2400002F02Rik”: the z-score is inactive: 1.2. To GGAUGAACGGAGGAAAAUUTT against Sox13 belongs inactive: -2.19; to GGAGGAGAAAUGGAUCACATT against H2afx, inactive: 0.139; to GCUAUCGGGUAUGGUUGCUTT against Prrxl1, inactive: -0.957. Under CCUGGAAAGACUCUCGGAGTT against Cln2 stands inactive: -0.492; under CCACAUGGAACCACUAACUTT against Wnt11, inactive: 0.531. Under “CGAAUGGCUAUCAGUGAGGTT against 2810442O16Rik” stands inactive: -0.098. GGAUGUACCACCUUUCUGGTT against Klhl6: the z-score was inactive: 1.02.

Consider GGUACUGAGUGUGUUUUGCTT against Olfr1364, for which the z-score was inactive: 0.233. For “GCACUGUAUUCUUGAGCACTT against 1700020L24Rik”, the z-score is inactive: 0.183. To GGACAGUUUACUCCAGAUATT against Foxc1 belongs inactive: 2.33. To GGGUCCAGUCAAUCAGAAATT against Znhit2 belongs inactive: -0.0601; to GCAUCGAUAUCAGGACAUGTT against Deaf1, inactive: -1.31. Turning to “GGUCCAAGAGAAAUGUGUATT against 4933428I03Rik”, the z-score was inactive: 2.55. Regarding CGUACACCAUUCAAGGUACTT against Kif20a, the z-score is inactive: -0.00548.

Regarding “GGCACUUGUGAGAAAAAUCTT against 3830422K02Rik”, the z-score is inactive: -0.225. To “GGCAGCAUGAAAGAAAAAATT against 6820428D13” belongs inactive: 1.14; to GGAGAACAACAAAGACAAGTT against Hoxb8, inactive: -0.978. GCUCCAACCCAAGAAAUUCTT against Hlx1: the z-score was inactive: 0.989. Take GGGUCUUCACUUUGAACCUTT against Adk: the z-score was inactive: -1.24. Under GGUCGGGAAGUGGUAAAACTT against Traf3ip1 stands inactive: 2.15; under GGAUUUCGACAAUAUGAAGTT against Chrnb2, active: 2.24; under GGUUGAAAAAGAACAGUGCTT against Bnc1, inactive: -1.48. To GGAGGUUACCUUCUACAGCTT against Il8rb belongs inactive: 2.29; to “GGUGCUUCUGGGAAACUUCTT against 2600011C06Rik”, inactive: -2.6; to GGUCCAAAAAUGGCUUGGCTT against Fabp9, inactive: 0.0757. Under CCUCAGAUGGAGGUUACUCTT against Inha stands inactive: -1.92.

“GGCAUAUUUGCCUGCAUAATT against C030019F02Rik”: the z-score was inactive: -1.17. Consider CAAUGACAGCAGAUGACGUTT against Crabp2, for which the z-score is inactive: 1.23. Under GGCUCACUCUCCAUUCUACTT against Asb6 stands inactive: -0.374; under “GCAAUGGUUGAAGAAAUUUTT against 9030611K07Rik”, inactive: -0.0859. For GCAGCCAAGUGGGUAACUUTT against Nicn1, the z-score was inactive: -1.49.

Regarding CCACCAGAUACAUAUUUGUTT against Gnpnat1, the z-score was inactive: 0.683.

For the origin of these results see PubChem BioAssay AID1347423 (Functional Genomics Laboratory (NCATS/FGL), 2020).
